From publication PMC11848624

By UniProt entry, the sequences of proteins in these tests, tags left out.
UniProt P19474: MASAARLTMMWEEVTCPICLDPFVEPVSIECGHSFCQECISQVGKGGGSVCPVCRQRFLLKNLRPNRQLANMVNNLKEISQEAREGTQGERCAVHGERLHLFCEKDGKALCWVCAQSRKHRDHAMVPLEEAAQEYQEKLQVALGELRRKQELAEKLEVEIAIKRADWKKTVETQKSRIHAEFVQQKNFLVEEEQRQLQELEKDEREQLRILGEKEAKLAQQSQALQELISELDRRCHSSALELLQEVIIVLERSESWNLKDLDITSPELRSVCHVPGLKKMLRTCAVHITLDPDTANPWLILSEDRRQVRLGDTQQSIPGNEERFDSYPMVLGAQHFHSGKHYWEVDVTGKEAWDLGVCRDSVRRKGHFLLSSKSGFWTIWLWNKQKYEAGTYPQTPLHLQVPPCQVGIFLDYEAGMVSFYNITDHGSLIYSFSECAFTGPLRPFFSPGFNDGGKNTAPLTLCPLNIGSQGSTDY

Target: TRIM21 overexpressed in PANC1 (UniProt P19474)
Experiment: affinity purification with mass spectrometry; LC-MS/MS analysis on PANC1 cells overexpressing TRIM21, to identify proteins potentially interacting with TRIM21; how TRIM21 was isolated is not told

binding: binds
B1: EPHX1 (endogenous) (enzyme, UniProt P07099 1-455)
chain: MWLEILLTSVLGFAIYWFISRDKEETLPLEDGWWGPGTRSAAREDDSIRPFKVETSDEEIHDLHQRIDKFRFTPPLEDSCFHYGFNSNYLKKVISYWRNEFDWKKQVEILNRYPHFKTKIEGLDIHFIHVKPPQLPAGHTPKPLLMVHGWPGSFYEFYKIIPLLTDPKNHGLSDEHVFEVICPSIPGYGFSEASSKKGFNSVATARIFYKLMLRLGFQEFYIQGGDWGSLICTNMAQLVPSHVKGLHLNMALVLSNFSTLTLLLGQRFGRFLGLTERDVELLYPVKEKVFYSLMRESGYMHIQCTKPDTVGSALNDSPVGLAAYILEKFSTWTNTEFRYLEDGGLERKFSLDDLLTNVMLYWTTGTIISSQRFYKENLGQGWMTQKHERMKVYVPTGFSAFPFELLHTPEKWVRFKYPKLISYSYMVRGGHFAAFEEPELLAQDIRKFLSVLERQ

Results are given in words; binding and its absence hold for the method and conditions named. In cells and extracts the contact can be indirect. These calls come from enrichment with a bait or labelling near it, and not all partners need be listed.
